Assay results as given in patent US20100099614A1, “Antimicrobial Peptides and Methods of Use” (priority 2008, published 2010).

Tested on: Gram-negative bacteria
Assay: Antibacterial activity (MIC), microtiter dilution
Assay type: cell-based
Experimental: MICs were determined by a standard microtiter dilution method in Mueller Hinton Broth (MHB). Serial dilutions of the 10× compound were added to the microtiter plates in a volume of 10 μL followed by 90 μL of bacteria for an inoculum of 5×10^5 colony-forming units (CFU)/mL. The plates were incubated at 37° C. for 24 h, and the MICs were determined as the lowest peptide concentration that inhibited growth. […]
Alternatively; minimal inhibitory concentrations were determined using a standard microtiter dilution method in a Mueller-Hinton (MH) medium. Briefly, cells were grown overnight at 37° C. in MH broth and diluted in the same medium. Serial dilutions of the peptides were added to the microtiter plates in a volume of 100 μl followed by 10 μl of bacteria for an initial cell concentration of 1×10^5 CFU/ml. Plates were incubated at 37° C. for 24 hours and MICs determined as the lowest peptide concentration that inhibited growth.

CC[C@@H](C)[C@@H](NC(=O)[C@@H](C)NC(=O)[C@@H](CCCCN)NC(=O)[C@@H](CC(C)C)NC(=O)[C@@H](C)NC(=O)[C@H](NC(=O)[C@@H](Cc1c[nH]cn1)NC(=O)[C@@H](CC(C)C)NC(=O)[C@H](NC(=O)[C@H](NC(=O)[C@@H](CCCCN)NC(=O)[C@@H](CCCCN)NC(=O)[C@@H](C)NC(=O)[C@@H](CO)NC(=O)[C@@H](CCCCN)NC(=O)[C@@H](Cc1ccccc1)NC(=O)[C@H](NC(=O)[C@@H](CCCCN)NC(=O)[C@@H](CC(C)C)NC(=O)[C@@H](Cc1ccccc1)NC(=O)[C@@H](CO)NC(=O)[C@@H](CCCCN)NC(=O)[C@@H](Cc1c[nH]c2ccccc12)NC(=O)[C@@H](CCCCN)NC(C)=O)[C@H](C)O)[C@H](C)O)C(C)C)[C@H](C)O)C(=O)N[C@H](CO)C(=O)N[C@H](CO)C(N)=O [D1]
Therapeutic index HC50/MIC, Gram-negative bacteria (ratio of HC50 (μg/mL) over geometric mean MIC (μg/mL)): 198.4 | Therapeutic index Fold (fold improvement compared to that of D4), Gram-negative bacteria (relative to D4): 1281 fold
